Marks after values point to notes of the source that are not given here.
Conditions: 10 mg/kg iv, 9 normalized from 5 mg/kg, 24 from 1 mg/kg, 20 from full PK

CNc1cc(Nc2cnc(C#N)c(O[C@@H]3CCNC3)n2)ncc1C(=O)OC [Compound 9]
mouse plasma level iv, 1 h (1 h): 877 (±215) ^f nM | mouse plasma level iv, 6 h (6 h): 74 (±19) ^f nM

Source: paper PMC3506129 (Journal of Medicinal Chemistry, 2012)
